Data taken from PubChem BioAssay AID493014 (National Center for Advancing Translational Sciences (NCATS), 2011).
This is one part of the list. Shown are side measurements of this screen, not its main read-out; they come without a call. The list favours compounds with an active or inconclusive main result. Potencies come from curve fits of mixed quality, noted in brackets.

Assay: qHTS Assay to Find Inhibitors of Chronic Active B-Cell Receptor Signaling
Settings: ABC-DLBCL IkBa-CBG/CBR reporter, luminescence ratio (green luciferase fused to IkBa over red control in TMD8 lymphoma cells), 4 h
Method in brief: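 Doxycycline induced both beetle luciferases in TMD8 lymphoma cells; IKK-driven degradation limits the IkappaBalpha-fused green signal, while red luminescence normalises for cell number and nonspecific effects. Compounds tested up to 46 uM, 4 hrs.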

[1] = measured here: CBR red luminescence, cell number
[2] = measured here: IkBa-CBG green luminescence

## CCN1C(=O)[C@H]2[C@@H](c3ccc(-c4ccc(Cl)c(Cl)c4)cc3)N[C@@](CC(C)C)(C(=O)OC)[C@H]2C1=O
[1]
  AC50: 18.4 µM [falling, partial curve, poor fit]

## CSc1ccc(NC(=O)Nc2cc(C)ccn2)cc1
[1]
  AC50: 0.1 µM [rising, full curve, poor fit]

## Cc1cnc(NC(=O)CCCNC(=O)c2ccc(Cl)cc2)s1
[1]
  AC50: 23.1 µM [rising, single point]

## CCN(CC)c1ccc(NC(=O)c2[nH]c(C)c(C(C)=O)c2C)c(C)c1
[1]
  AC50: 0.146 µM [rising, full curve, poor fit]

## O=C(O)c1ccc2c3n(nc2c1)-c1ccc(Cl)cc1CO3
[1]
  AC50: 0.631 µM [falling, full curve, poor fit]

## O=C(Nc1ccc(Cl)cc1)[C@@H]1[C@@H]2C(=O)N(c3ccc4ccccc4c3)C(=O)[C@@H]2[C@H]2C=CC=NN21
[1]
  AC50: 1.3 µM [falling, full curve, poor fit]

## CSc1ccc(Cl)c(C(=O)Nc2ccc(OCC(N)=O)cc2)c1
[1]
  AC50: 35.5 µM [falling, single point]

## CN1CCC(C2(O)c3ccccc3CSc3sccc32)CC1 (stereo unspecified)
[1]
  AC50: 29.1 µM [falling, single point]

## CCOC(=O)N1CCN(C(=O)COC(=O)C2CCN(S(=O)(=O)c3c(Cl)cccc3Cl)CC2)CC1
[1]
  AC50: 10.3 µM [rising, partial curve, poor fit]

## CCOC(=O)c1ccc(S(=O)(=O)NNc2ccc(C(F)(F)F)cn2)cc1
[1]
  AC50: 25.9 µM [falling, single point]

## O=C(NCc1ccco1)NC(=O)c1csc([N+](=O)[O-])c1
[1]
  AC50: 20 µM [rising, single point]

## Cc1nn(-c2ccccn2)c2c1C(c1ccncc1)C1=C(CC(C)(C)CC1=O)N2 (stereo unspecified)
[1]
  AC50: 20.6 µM [rising, partial curve]

## Cc1cc2ncc(-c3ncc(C(F)(F)F)cc3Cl)cn2n1
[1]
  AC50: 7.31 µM [rising, partial curve, poor fit]

## O=C(C1=C[C@@H](c2coc3ccccc3c2=O)C[C@@H](OCCCCO)O1)N1CCOCC1
[1]
  AC50: 6.31 µM [falling, single point]

## CCCC(=O)O[C@]1(C(=O)COC(C)=O)CC[C@H]2[C@@H]3C[C@H](F)C4=CC(=O)C=C[C@]4(C)[C@@]3(F)[C@@H](O)C[C@@]21C
[1]
  AC50: 8.91 µM [falling, partial curve]

## Cc1sc(NC(=S)NC(=O)CCc2ccccc2)c(C(N)=O)c1C
[1]
  AC50: 0.366 µM [rising, full curve]
[2]
  AC50: 0.326 µM [falling, full curve]

## CNC(=O)c1c(NC(=O)CS(=O)(=O)c2ccccc2)sc(C)c1C
[1]
  AC50: 29.1 µM [falling, partial curve, poor fit]

## CCSC(=O)N(CC)CC(=O)Nc1c(CC)cccc1CC
[1]
  AC50: 32.6 µM [rising, single point]

## CCc1ccc(Nc2n[n+](-c3ccccc3)c(-c3cccc(C)c3)s2)cc1
[1]
  AC50: 29.1 µM [falling, single point]

## COc1ccc(C(=O)C2CCCN(S(=O)(=O)C(C)C)C2)c(C)c1 (stereo unspecified)
[1]
  AC50: 2.51 µM [rising, full curve, poor fit]

## CCC(c1nnnn1Cc1ccc(F)cc1)N(CCCO)Cc1cc2cc3c(cc2[nH]c1=O)OCO3 (stereo unspecified)
[1]
  AC50: 20 µM [falling, single point]

## C/C(CCc1oc2ccc(Br)cc2c1-c1ccc(C)o1)=N/O
[1]
  AC50: 29.1 µM [falling, single point]

## O=C(COC(=O)c1ccccc1-c1nc2ccccc2s1)Nc1ccccc1C(F)(F)F
[1]
  AC50: 6.51 µM [rising, single point]

## C/C(=N\NS(=O)(=O)c1ccc(Br)cc1)c1ccc(-n2ccnc2)cc1
[1]
  AC50: 1.46 µM [rising, partial curve, poor fit]

## Cc1ccc2sc(N(CCCN(C)C)C(=O)CCS(=O)(=O)c3ccccc3)nc2c1C
[1]
  AC50: 8.91 µM [falling, partial curve, poor fit]

## CC(=O)Nc1ccc(C(=O)OCC(=O)NCc2cccs2)cc1
[1]
  AC50: 20.6 µM [rising, partial curve]

## CC(NC(=O)c1ccccc1Cl)C1COc2ccccc2O1 (stereo unspecified)
[1]
  AC50: 0.731 µM [rising, partial curve, poor fit]

## CCc1ccc(N2CC(C(=O)Nc3cc(C)on3)CC2=O)cc1 (stereo unspecified)
[1]
  AC50: 6.31 µM [rising, single point]

## O=C(Nc1ccc(Cn2cccn2)cc1)c1ccc(COc2cccc(Br)c2)cc1
[1]
  AC50: 4.61 µM [rising, single point]

## CCN1C(=O)c2cccc3c(NS(=O)(=O)c4ccc(NC(C)=O)cc4)ccc1c23
[1]
  AC50: 17.8 µM [rising, partial curve, poor fit]

## O=C(Nc1cccc(-c2csc(Nc3cccc(C(F)(F)F)c3)n2)c1)c1ccccc1
[1]
  AC50: 35.5 µM [falling, single point]
[2]
  AC50: 20 µM [rising, single point]

## O=[N+]([O-])c1ccc(CS(=O)(=O)c2ccc(Cl)cc2)cc1
[1]
  AC50: 3.55 µM [rising, single point]

## Cc1ccsc1/C=C/c1ccc2ccccc2n1
[1]
  AC50: 0.794 µM [rising, full curve, poor fit]

## CCN(CC)c1ccc2c(c1)OC(N)=C(C#N)C2c1cccnc1 (stereo unspecified)
[1]
  AC50: 1 µM [rising, full curve]
[2]
  AC50: 0.891 µM [falling, full curve]

## O=C(CCNc1ccccc1)c1cccc([N+](=O)[O-])c1
[1]
  AC50: 3.55 µM [rising, full curve, poor fit]

## Cc1ccc(NC(=O)N2CCC(c3nc4c(nnn4Cc4c(F)cccc4Cl)c(=O)[nH]3)CC2)cc1
[1]
  AC50: 13 µM [falling, partial curve]

## COCCN1C=C(C(=O)OC)C(c2cc(Br)c(OC)c(OC)c2)C(C(=O)OC)=C1
[1]
  AC50: 0.0731 µM [falling, full curve, poor fit]

## Cc1ccccc1NS(=O)(=O)c1cc(C(=O)Nc2cccc([N+](=O)[O-])c2)ccc1C
[1]
  AC50: 18.4 µM [falling, single point]

## Cc1ccc2cc3c(NC(=O)C4CCCO4)nn(CC(C)C)c3nc2c1 (stereo unspecified)
[1]
  AC50: 29.1 µM [rising, single point]

## COc1cc(C2c3[nH]c4ccccc4c3CCN2Cc2cn(C)nc2C)ccc1F (stereo unspecified)
[1]
  AC50: 22.4 µM [falling, partial curve]

## Cc1cc(CNC(=O)C2CCC(=O)N(Cc3ccccc3F)C2)nn1C (stereo unspecified)
[1]
  AC50: 6.31 µM [rising, single point]

## COc1ccccc1-c1nnc(SC/C(O)=C(\C#N)c2nc3ccccc3[nH]2)n1C1CCCCC1
[1]
  AC50: 11.6 µM [falling, partial curve, poor fit]

## Cc1cc(N2CCC(C)CC2)nc2cccc(O)c12
[1]
  AC50: 9.2 µM [rising, partial curve, poor fit]

## COc1ccc(C(=O)NNC(=O)c2ccc3ccccc3n2)cc1
[1]
  AC50: 6.51 µM [rising, full curve, poor fit]
[2]
  AC50: 20.6 µM [falling, single point]

## CN1CCN(CCCNC(=O)c2ccc3c(=O)n(CCc4ccccc4)c(=O)[nH]c3c2)CC1
[1]
  AC50: 35.5 µM [falling, single point]

## Cc1c(OCC(=O)NCc2ccncc2)ccc2c3c(c(=O)oc12)CCC3
[1]
  AC50: 0.794 µM [rising, full curve, poor fit]

## O=C(NNC1=Nc2ccccc2SC1)c1ccc(Cl)cc1
[1]
  AC50: 0.224 µM [rising, full curve, poor fit]

## O=C(CN1CCN(S(=O)(=O)N2CCOCC2)CC1)Nc1cc(Cl)ccc1Cl
[1]
  AC50: 1 µM [rising, full curve]

## CCCCNc1c(-c2ccc(OC)c(SC3CCCCC3)c2)nc2cnccn12
[1]
  AC50: 20.6 µM [falling, partial curve]
[2]
  AC50: 25.9 µM [rising, partial curve, poor fit]

## CCOC(=O)c1cnc(SC)nc1Sc1ccccc1
[1]
  AC50: 8.2 µM [rising, partial curve, poor fit]

## Cc1ccn2cc(CNC(=O)c3cccs3)nc2c1
[1]
  AC50: 6.51 µM [rising, single point]

## C/C(=C/C(=O)O)C(=O)Nc1cccc(C(F)(F)F)c1
[1]
  AC50: 20 µM [falling, partial curve, poor fit]

## O=C(CSc1nc2ccccc2s1)NNC(=O)Nc1ccc(Cl)c(Cl)c1
[1]
  AC50: 14.6 µM [falling, single point]

## CC1=C(C(=O)OCc2ccccc2)C(c2ccc(Cl)cc2)NC(=O)N1C (stereo unspecified)
[1]
  AC50: 25.1 µM [falling, single point]

## Cc1ccc(CN(C)C(=O)c2ccc(S(=O)(=O)N3CCCCCC3)cc2)o1
[1]
  AC50: 29.1 µM [rising, partial curve, poor fit]

## Cn1c(-c2ccc(Br)o2)nc2ccccc21
[1]
  AC50: 35.5 µM [falling, single point]

## COc1ccc(C(=O)NN)cc1
[1]
  AC50: 6.31 µM [falling, partial curve]

## CCOc1ccccc1NC(=O)C(OC(=O)c1ccc(CC)cc1)c1ccccc1 (stereo unspecified)
[1]
  AC50: 32.6 µM [rising, single point]

## COCc1nnc(NC(=O)CS(=O)(=O)Cc2ccccc2)s1
[1]
  AC50: 20.6 µM [rising, single point]

## C=CCSc1cc(C)nc2c(-c3ccccc3)cnn12
[1]
  AC50: 20 µM [falling, single point]

## COC(=O)c1ccc(NC(=O)c2cccc(N3C(=O)C4C5C=CC(C6CC56)C4C3=O)c2)cc1 (stereo unspecified)
[1]
  AC50: 0.631 µM [falling, partial curve, poor fit]
